In patent US20240279710A1, “FLUORESCENT PROBES” (TOHOKU TECHNO ARCH CO., LTD., priority 2021, published 2024):
Some of these results come from one statement about several compounds together.

Key:
[1] = molecular target: T1, calpain-1 from human erythrocytes (Homo sapiens, UniProt P07384); assay: Fluorescence assay with calpain-1; assay type: biochemical; details: 10 μM probe; for increase in fluorescence intensity 10 minutes after the addition of calpain-1: 50 U/mL calpain-1, 5 mM CaCl2, 37° C., excitation 475 nm, fluorescence 500-550 nm, FIG. 5(a); for enzymatic reactivity with a calpain as compared to Compound 16, or Compound 17 or 18: calpain-1, 37° C., FIG. 5
T1 construct: calpain-1 from human erythrocytes; purchased Merck Millipore 208713; host or cells: human erythrocytes (natural source)
T1 sequence (P07384 1-714): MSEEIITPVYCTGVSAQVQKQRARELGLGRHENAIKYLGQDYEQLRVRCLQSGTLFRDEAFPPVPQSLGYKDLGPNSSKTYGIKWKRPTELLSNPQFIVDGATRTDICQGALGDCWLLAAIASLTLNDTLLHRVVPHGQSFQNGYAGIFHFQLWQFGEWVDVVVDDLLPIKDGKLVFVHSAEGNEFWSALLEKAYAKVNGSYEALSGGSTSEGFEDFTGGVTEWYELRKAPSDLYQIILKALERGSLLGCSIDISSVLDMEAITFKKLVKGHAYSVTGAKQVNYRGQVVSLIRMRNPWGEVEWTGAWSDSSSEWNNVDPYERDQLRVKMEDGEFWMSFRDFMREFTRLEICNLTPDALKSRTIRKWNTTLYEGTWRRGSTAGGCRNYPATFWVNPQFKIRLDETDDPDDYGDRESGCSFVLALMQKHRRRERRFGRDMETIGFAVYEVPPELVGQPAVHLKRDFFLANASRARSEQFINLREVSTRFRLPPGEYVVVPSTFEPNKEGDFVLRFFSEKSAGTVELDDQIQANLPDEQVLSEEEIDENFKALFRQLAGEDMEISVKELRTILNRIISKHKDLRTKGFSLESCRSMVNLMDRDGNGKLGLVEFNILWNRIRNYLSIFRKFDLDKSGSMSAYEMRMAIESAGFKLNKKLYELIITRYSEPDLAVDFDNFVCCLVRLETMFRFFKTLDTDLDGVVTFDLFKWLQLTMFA
T1 sequence (P04632 1-268 partner): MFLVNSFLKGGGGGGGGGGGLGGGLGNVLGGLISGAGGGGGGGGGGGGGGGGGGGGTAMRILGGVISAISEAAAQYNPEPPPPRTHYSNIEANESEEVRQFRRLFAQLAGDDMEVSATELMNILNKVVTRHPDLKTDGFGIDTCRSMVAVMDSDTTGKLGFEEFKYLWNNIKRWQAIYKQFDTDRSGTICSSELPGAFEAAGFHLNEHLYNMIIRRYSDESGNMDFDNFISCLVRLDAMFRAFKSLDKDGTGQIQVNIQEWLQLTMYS
Description: The fluorescence assays of Compound 19 and Compound 16 with time were performed. Specifically, 17.4 U/mL of calpain-1 and 5 mM CaCl2 were added to a 50 mM TRIS buffer (pH: 7.4, 2 mM EGTA, 2 mM DTE) containing 10 μM of each of the synthesized fluorescent probes to perform an enzyme reaction at 37° C. Each of the compounds to which calpain-1 and CaCl2 were not added was similarly subjected as a negative control to the measurement.
The fluorescence assays of Compounds 16 to 36 were similarly performed. 50 Units per milliliter (Compounds 16 and 19 to 25) or 17.4 U/mL (Compounds 16 to 18 and 26 to 36) of calpain-1 and 5 mM CaCl2 were added to a 50 mM TRIS buffer (pH: 7.4, 2 mM EGTA, 2 mM DTE) containing 10 μM of each of the synthesized fluorescent probes to perform an enzyme reaction at 37° C.
Next, similar fluorescence assays of Compounds 37, 42, 45, 48, 51, 53, 55, 57, and 59 with calpain-1 were performed. Specifically, 17.4 U/mL of calpain-1 and 5 mM CaCl2 were added to a 50 mM TRIS buffer (pH: 7.4, 2 mM EGTA, 2 mM DTE) containing 10 μM of each of the synthesized fluorescent probes to perform an enzyme reaction at 37° C. Each of the compounds to which calpain-1 was not added was used as a control.
To evaluate an influence of a R^12-L-O— group on the reactivity of each of compounds having the same amino acids with calpain-1, the fluorescence assays of Compounds 37 to 66 with calpain-1 were performed in accordance with the above-mentioned method. Specifically, 17.4 U/mL of calpain-1 and 5 mM CaCl2 were added to a 50 mM TRIS buffer (pH: 7.4, 2 mM EGTA, 2 mM DTE) containing 10 μM of each of the synthesized fluorescent probes to perform an enzyme reaction at 37° C., followed by the measurement of an increase in fluorescence intensity of each of the compounds 10 minutes after the addition of calpain-1.

[2] = test system: SH-SY5Y cells; assay: Live cell imaging of calpain activity in SH-SY5Y cells; assay type: cell-based; details: 5 μM probe, 30 minutes of incubation; FIG. 13, FIG. 14
Description: Whether or not the improvement in enzymatic reactivity between the compound of the present invention and a calpain confirmed by the above-mentioned experiment remained the same even in a cell was verified. Calpain activity imaging in SH-SY5Y cells was performed on each of Compounds 16 and 19. Specifically, the SH-SY5Y cells (American Type Culture Collection, VA, USA) were cultured in a mixed medium of Dulbecco's modified eagle medium and Ham's F-12 medium (DMEM/F-12; Thermo Fisher Scientific, Inc.) (containing 10% fetal bovine serum (FBS; Thermo Fisher Scientific, Inc., MA, USA) and 100 U/mL penicillin-100 μg/mL streptomycin (PS; Thermo Fisher Scientific, Inc.)) under the conditions of 37° C. and 5% CO2-95% air. 6×10^4 to 8×10^4 Cells/well of the cells were seeded in a multiwell plate (μ-Plate 96 Well; ibidi, Grafelfing, Germany) coated with poly-D-lysine (Thermo Fisher Scientific, Inc.) and laminin (BD Biosciences, CA, USA), and were preincubated in a culture solution. Immediately after the removal of the culture solution in the wells, 200 μL of an assay solution (a culture solution containing a 5 μM probe) was added thereto, and the cells were incubated under the conditions of 37° C. and 5% CO2-95% air. 10 Minutes after that, a bright field image and a fluorescence image were taken with a confocal microscope (LSM 710, Carl Zeiss AG, Oberkochen, Germany).
Calpain activity imaging in SH-SY5Y cells was performed on each of Compounds 20 to 23, Compound 38, and Compound 56 in the same manner as in Example 9. In the case of each of Compounds 20 to 23 and Compound 38, a bright field image and a fluorescence image were taken after 30 minutes of incubation of the cells, and in the case of Compound 56, such images were taken after 20 minutes of incubation thereof.

| Compound | increase in fluorescence intensity 10 minutes after the addition of calpain-1 [1] | enzymatic reactivity with a calpain as compared to Compound 16, or Compound 17 or 18 [1] | calpain activity imaging in SH-SY5Y cells [2] |
| --- | --- | --- | --- |
| COCCOCCOCC(=O)N[C@@H](CC(C)C)C(=O)N[C@@H](CCSC)C(=O)Nc1ccc2c(c1)Oc1cc(N)ccc1C21OCc2ccccc21 (stereo partly drawn) [Compound 21] | larger than that of Compound 16 | improved in enzymatic reactivity with a calpain | calpain activity in the SH-SY5Y cells was able to be observed |
| COCCOCCOCCOCC(=O)N[C@@H](CC(C)C)C(=O)N[C@@H](CCSC)C(=O)Nc1ccc2c(c1)Oc1cc(N)ccc1C21OCc2ccccc21 (stereo partly drawn) [Compound 22] | larger than that of Compound 16 | improved in enzymatic reactivity with a calpain | calpain activity in the SH-SY5Y cells was able to be observed |
| COCCOCCOCCOCCOCC(=O)N[C@@H](CC(C)C)C(=O)N[C@@H](CCSC)C(=O)Nc1ccc2c(c1)Oc1cc(N)ccc1C21OCc2ccccc21 (stereo partly drawn) [Compound 23] | larger than that of Compound 16 | improved in enzymatic reactivity with a calpain | calpain activity in the SH-SY5Y cells was able to be observed |
